PubChem BioAssay AID504791 | Drosophila RNAi Screening Center | 2011
Assay: 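Genes whose knock-down strengthens or weakens small-RNA reporter silencing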 (primary screen). Cells: Drosophila S2-derived reporter cells. Reagents: long dsRNA against Drosophila genes, about 150-250 ng dsRNA per well (siRNA assay); about 80-120 ng (miRNA assay). Time to read-out: about 5 days (siRNA assay); about 4 days (miRNA assay). Conditions: copper sulfate induction of reporters: 25 µM (siRNA assay); 200 mM stated (miRNA assay), 1-2 days before reading. Detection: 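Per-well ratio of Renilla over firefly light, expressed relative to that plate's average ratio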. Active means: 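First-pass picks had plate-scaled ratios over 1.5 for the siRNA assay, over 1.6 for the miRNA assay, or under 0.6; two distinct dsRNAs had to score alike on retest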.
The screen tested about 23,000 reagents; this is an unselected part of those that have a named target and a result. Of all reagents, 199 (0.86%) were called active. 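Plate-scaled ratios behind the calls are not deposited; printed light signals are raw; many rows marked increased or decreased are still called inactive.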 A number with no mark means an inactive call. Names joined by + are all predicted targets of the reagent. Not given: the direction of the score.

gene,DRSC id,stable siRNA reporter change,miRNA reporter change,"stable assay Renilla, run 1 (luminescence)","stable assay firefly, run 1 (luminescence)"
CG18265,DRSC10310,,,7483,3.04e5
nvy (nervy),DRSC04705,reporter ratio raised past the hit cutoff,,13484,2.11e6
Ir47a (Ionotropic receptor 47a),DRSC06215,,,6591,3.71e5
Ppt2 (Palmitoyl-protein Thioesterase 2),DRSC02786,,,21553,1.18e6
Ppt2 (Palmitoyl-protein Thioesterase 2),DRSC26027,,reporter ratio raised past the hit cutoff,,
pb (proboscipedia),DRSC12409,,,6487,4.30e5
pb (proboscipedia),DRSC12629,,,5704,3.74e5
Adk2 (Adenosine kinase 2),DRSC09827,,,8588,4.75e5
Tpc1,DRSC15614,,,6740,3.90e5
Tpc1,DRSC16074,,,7871,3.86e5
CG1662,DRSC19754,,,7862,4.14e5
amd (alpha methyl dopa-resistant),DRSC02608,,,4954,3.83e5
amd (alpha methyl dopa-resistant),DRSC03483,,,7096,3.90e5
shu (shutdown),DRSC04484,,,19379,1.28e6
CG12159,DRSC06114,,,6442,4.22e5
Dtg (Dpp target gene),DRSC15998,,,7075,3.96e5
Ctr1A (Copper transporter 1A),DRSC18336,,,3812,2.35e5
CG2006,DRSC15412,,,3632,4.00e5
Acat2 (Acetyl-CoA acetyltransferase 2),DRSC08630,,,5500,3.25e5
CG2993,DRSC14284,,,8006,6.80e5
CG2993,DRSC15457,,,8158,4.31e5
CG5984,DRSC15930,,,6266,3.44e5
Irc (Immune-regulated catalase),DRSC16454,,,8823,2.67e5
e(r) (enhancer of rudimentary),DRSC18768,,,7394,4.11e5
BicD (Bicaudal D),DRSC02006,,,80906,2.40e6
Ugt49C1 (UDP-glycosyltransferase family 49 member C1),DRSC04252,,,6719,4.72e5
Bet1 (Blocked early in transport 1),DRSC10088,,,6267,3.47e5
fz4 (frizzled 4),DRSC18780,,,6062,2.86e5
CG32271,DRSC08198,,,6483,3.71e5
CG11664,DRSC18650,,,5811,3.48e5
CG7488,DRSC16250,,,6164,5.58e5
Tsc1,DRSC16890,,,10247,3.33e5
stck (steamer duck),DRSC17070,,,7227,3.91e5
HtrA2 (HTRA2-related serine protease),DRSC16425,,,6607,3.95e5
CG30431,DRSC04902,,,2.53e5,1.48e6
CG30431,DRSC04904,,,6735,3.62e5
zip (zipper),DRSC04725,,,4048,3.24e5
zip (zipper),DRSC22489,,,3407,3.03e5
CSN5 (COP9 signalosome subunit 5),DRSC16592,,,8988,3.74e5
CSN5 (COP9 signalosome subunit 5),DRSC22381,,,7327,5.62e5
amon (amontillado),DRSC13784,,,5702,3.73e5
amon (amontillado),DRSC16900,,,4859,4.50e5
CG9175,DRSC03153,,,60265,3.80e5
CG1602,DRSC06601,,,8353,4.73e5
Paip2 (polyA-binding protein interacting protein 2),DRSC14504,,,9273,6.02e5
Sirt7 (Sirtuin 7),DRSC14294,,,8717,6.26e5
CG12728,DRSC17883,,,8497,4.48e5
CG6059,DRSC15958,,,8434,4.26e5
CG9853,DRSC12343,,,3899,2.84e5
CG9853,DRSC22840,,,5847,4.34e5
bero (belly roll),DRSC03211,,,7170,4.34e5
Gss1 + Gss2,DRSC20008,,,4532,4.01e5
Gss1 + Gss2,DRSC21539,,,10061,5.11e5
CG15366 (retired record),DRSC18039,,,6207,5.26e5
Ect3 (Ectoderm-expressed 3),DRSC15462,,,7391,5.59e5
CG12236,DRSC17830,,,9119,3.62e5
CG12236,DRSC17831,,,5215,3.06e5

Look-ups from the entries so far.
Under “stable assay Renilla, run 1 (luminescence)”, Sirt7 (Sirtuin 7) [DRSC14294] is entered as 8717
pb (proboscipedia) [DRSC12409], stable assay firefly, run 1 (luminescence): 4.30e5
